Percent effect of library compounds

Amino acid sequences for entries named in this document (tags omitted). Residues count along the entry.
UniProt Q4DA54, 1-478: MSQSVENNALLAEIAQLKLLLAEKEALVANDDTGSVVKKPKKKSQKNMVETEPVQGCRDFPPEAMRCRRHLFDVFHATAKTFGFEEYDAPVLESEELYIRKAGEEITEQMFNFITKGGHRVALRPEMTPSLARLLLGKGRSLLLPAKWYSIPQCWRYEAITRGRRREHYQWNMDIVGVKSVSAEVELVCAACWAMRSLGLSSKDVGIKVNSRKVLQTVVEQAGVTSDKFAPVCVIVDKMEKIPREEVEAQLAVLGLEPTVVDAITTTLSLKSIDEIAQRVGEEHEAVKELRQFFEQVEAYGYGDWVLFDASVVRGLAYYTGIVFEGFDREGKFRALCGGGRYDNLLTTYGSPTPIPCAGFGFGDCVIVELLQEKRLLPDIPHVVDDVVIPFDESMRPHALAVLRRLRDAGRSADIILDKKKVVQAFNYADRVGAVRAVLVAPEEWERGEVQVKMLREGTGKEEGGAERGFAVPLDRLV
UniProt P9WNZ1, whole entry: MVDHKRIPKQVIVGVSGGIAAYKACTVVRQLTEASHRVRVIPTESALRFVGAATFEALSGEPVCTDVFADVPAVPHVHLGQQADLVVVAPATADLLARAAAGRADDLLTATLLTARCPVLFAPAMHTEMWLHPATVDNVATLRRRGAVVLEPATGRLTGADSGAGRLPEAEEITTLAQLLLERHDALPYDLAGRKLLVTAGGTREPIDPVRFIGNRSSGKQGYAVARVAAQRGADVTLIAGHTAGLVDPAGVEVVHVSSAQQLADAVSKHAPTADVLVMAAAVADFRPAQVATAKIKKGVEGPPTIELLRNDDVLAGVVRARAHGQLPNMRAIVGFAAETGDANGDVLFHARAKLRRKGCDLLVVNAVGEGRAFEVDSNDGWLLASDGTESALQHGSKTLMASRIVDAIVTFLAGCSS

Measurements from “University of Dundee, Small-Polar-MMV Screening Library” (2021), ChEMBL document CHEMBL3988442.

Toxoplasma: 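Assay of Toxoplasma gondii numbers, read through their beta-galactosidase reporter with a colour substrate. Concentration: 10 µM. Higher reads as fewer parasites (inferred from which compounds were picked for retests). Of about 67,000 compounds tested this way, about 260 (0.38%) reached 50% or more in at least one test.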
TcHisRS: 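Histidine-tRNA ligase, Trypanosoma cruzi CL Brener (UniProt Q4DA54). Enzyme assay of histidyl-tRNA synthetase; the read-out is not stated. Tested at 30 µM. The record gives no direction; compounds that gave an IC50 in retests scored well above the rest, so higher reads as stronger inhibition. Of about 69,000 compounds tested this way, about 31 (0.045%) reached 50% or more in at least one test.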
CoaBC: 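Coenzyme A biosynthesis protein CoaBC, Mycobacterium tuberculosis (UniProt P9WNZ1). Enzyme assay of CoaBC with a phosphate dye (Biomol Green) read at 650 nm. Compounds at 30 µM. Higher reads as stronger inhibition, judged from the few compounds that gave an IC50. Most strong results did not repeat in a second test. About 67,000 compounds were tested under these conditions; 0.06% (about 40) showed 50% or more at least once.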
Leishmania in macrophages: 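Cell assay of Leishmania donovani living inside macrophages; the read-out is not stated. Tested at 30 µM. Direction is inferred from retests: higher values go with stronger inhibition. About 69,000 compounds were tested under these conditions; 1.5% (about 1,000) showed 50% or more at least once.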

Each number is a percent effect as filed.
The record does not define 0% and 100%; most values in the screen are far below 50% and negative numbers occur (in some assays of this library far below -100).
This is an unselected part of the compounds tested.

* O=C(N[C@H]1CC[C@H](O)CC1)c1ccc2nc(-c3ccccc3)cn2c1 | Toxoplasma: -2.294%; TcHisRS: 5.357%; CoaBC: 3.045%; Leishmania in macrophages: -11.93%
* Cc1cc(CNC(=O)NCCCC(=O)N2CCc3ccccc32)no1 | Toxoplasma: 7.458%; TcHisRS: 7.182%; CoaBC: 4.204%; Leishmania in macrophages: 8.681%
* CCOc1ccc(CN2CCN(C(=O)c3cc(C4CC4)[nH]n3)CC2)cc1 | Toxoplasma: -29.12%; TcHisRS: -0.5814%; CoaBC: 6.14%; Leishmania in macrophages: 37.39%
* CC(NCC1CCS(=O)(=O)CC1)c1cccc(OC(F)F)c1 (configuration not stated) | Toxoplasma: 7.729%; TcHisRS: 2.062%; CoaBC: 2.857%; Leishmania in macrophages: 17.18%
* CCC(=O)N(CCN(C)C)Cc1ccc(F)c(F)c1 | Toxoplasma: 10.43%; TcHisRS: 5%; CoaBC: 3.39%; Leishmania in macrophages: -22.37%
* Cc1cc(C)c(C(=O)N2CCOCC2c2c(C)n[nH]c2C)o1 (configuration not stated) | Toxoplasma: 0.626%; TcHisRS: 2.053%; CoaBC: 5%; Leishmania in macrophages: 12.7%
* Cc1occc1C(=O)N1CCC2(CCN(Cc3nccs3)C2)CC1 | TcHisRS: 0%; CoaBC: -1.818%
* O=C(Cc1c[nH]c2ccccc12)N1CCC(Nc2ccccc2)CC1 | Toxoplasma: 18.89%; TcHisRS: 4.942%; CoaBC: -1.979%; Leishmania in macrophages: 8.084%
* CSc1ccc(C(=O)N2CC(=O)N(Cc3ccccc3)CC(O)C2)cc1 (configuration not stated) | Toxoplasma: -6.37%; TcHisRS: 8.989%; CoaBC: 1.211%; Leishmania in macrophages: -10.06%
* COCc1nc(C(=O)N(Cc2ccccc2)CC(C)C(=O)O)cs1 (configuration not stated) | Toxoplasma: -6.077%; TcHisRS: 1.01%; CoaBC: 3.241%; Leishmania in macrophages: 6.502%
* CCN1CC(C(=O)N2CCN(CCn3cccc3)CC2)CCC1=O (configuration not stated) | Toxoplasma: -7.47%; TcHisRS: 0.8772%; CoaBC: 0.6165%; Leishmania in macrophages: 15.99%
* O=C(Nc1cccc(N2CCCC2)c1)N[C@H](CCO)c1ccccc1 | Toxoplasma: -0.4496%; TcHisRS: 4.348%; CoaBC: -4.317%; Leishmania in macrophages: 29.69%
* CCCN1CCC2(CC1)CN(C(=O)c1cccnc1)c1ccc(F)cc12 | TcHisRS: 2.513%; CoaBC: 5.569%
* CCc1nnc(CN2CCC(c3nc4cc(Cl)ccc4o3)CC2)o1 | Toxoplasma: 6.906%; TcHisRS: 4.103%; CoaBC: -2.067%; Leishmania in macrophages: -16.89%
* Cc1cnc(CNC2CCc3nc(C(C)C)nn3C2)cn1 (configuration not stated) | Toxoplasma: -8.916%; TcHisRS: 2.513%; CoaBC: -1.564%; Leishmania in macrophages: -21.65%
* CN(C)CCCNC(=O)C(c1cccc(F)c1)N(C)C (configuration not stated) | Toxoplasma: -6.65%; TcHisRS: 6.533%; CoaBC: -0.3619%; Leishmania in macrophages: 17.93%

The first 2 entries again:

* O=C(N[C@H]1CC[C@H](O)CC1)c1ccc2nc(-c3ccccc3)cn2c1 | Toxoplasma: -2.294%; TcHisRS: 5.357%; CoaBC: 3.045%; Leishmania in macrophages: -11.93%
* Cc1cc(CNC(=O)NCCCC(=O)N2CCc3ccccc32)no1 | Toxoplasma: 7.458%; TcHisRS: 7.182%; CoaBC: 4.204%; Leishmania in macrophages: 8.681%